A: 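Histidine-tRNA ligase, Trypanosoma cruzi CL Brener (UniProt Q4DA54). Enzyme assay of histidyl-tRNA synthetase; the read-out is not stated. Tested at 30 µM. The record gives no direction; compounds that gave an IC50 in retests scored well above the rest, so higher reads as stronger inhibition. Of about 69,000 compounds tested this way, about 31 (0.045%) reached 50% or more in at least one test.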
B: 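Coenzyme A biosynthesis protein CoaBC, Mycobacterium tuberculosis (UniProt P9WNZ1). Enzyme assay of CoaBC with a phosphate dye (Biomol Green) read at 650 nm. Compounds at 30 µM. Direction is inferred from only a few compounds that gave an IC50; most scored high, so higher reads as stronger inhibition. Most strong results did not repeat in a second test. Of about 67,000 compounds tested this way, about 40 (0.06%) reached 50% or more in at least one test.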

Sequences of proteins named here, by UniProt entry; tags and fusion partners are left off. Residues count along the entry.
UniProt Q4DA54, 1-478: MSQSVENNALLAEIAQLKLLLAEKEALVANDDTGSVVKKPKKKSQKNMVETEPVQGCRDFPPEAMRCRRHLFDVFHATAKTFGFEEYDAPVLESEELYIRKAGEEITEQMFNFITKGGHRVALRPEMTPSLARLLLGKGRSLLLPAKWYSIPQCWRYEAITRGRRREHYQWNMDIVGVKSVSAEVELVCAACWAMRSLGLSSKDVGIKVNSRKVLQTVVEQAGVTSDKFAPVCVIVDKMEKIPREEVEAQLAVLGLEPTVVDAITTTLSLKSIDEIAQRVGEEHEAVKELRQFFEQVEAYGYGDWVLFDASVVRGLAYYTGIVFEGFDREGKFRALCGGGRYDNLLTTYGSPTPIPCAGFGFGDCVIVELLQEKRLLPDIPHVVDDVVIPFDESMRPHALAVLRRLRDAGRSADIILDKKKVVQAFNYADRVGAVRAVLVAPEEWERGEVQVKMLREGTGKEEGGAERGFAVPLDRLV
UniProt P9WNZ1, whole entry: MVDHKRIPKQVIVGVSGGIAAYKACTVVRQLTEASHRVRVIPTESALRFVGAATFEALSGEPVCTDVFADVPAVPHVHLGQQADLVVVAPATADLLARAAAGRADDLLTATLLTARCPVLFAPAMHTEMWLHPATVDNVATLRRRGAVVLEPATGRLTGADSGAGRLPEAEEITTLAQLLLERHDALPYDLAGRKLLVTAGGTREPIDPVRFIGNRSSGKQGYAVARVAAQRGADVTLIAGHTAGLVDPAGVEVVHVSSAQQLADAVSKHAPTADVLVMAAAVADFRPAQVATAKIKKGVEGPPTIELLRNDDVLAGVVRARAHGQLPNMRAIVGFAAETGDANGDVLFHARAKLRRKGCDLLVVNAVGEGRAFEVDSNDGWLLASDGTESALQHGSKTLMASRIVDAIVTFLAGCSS

Results are given as percent effect. How 0% and 100% were set is not recorded. Most values in the screen are low, and negative values occur. The compounds are a random part of those screened. A dash means the value is not listed here; it may have been measured.

compound,A,B
CS(=O)(=O)N1CCOCC12CCN(c1nncs1)CC2,2.299%,9.572%
O=C(CCn1nc(C(=O)Nc2ccccc2)ccc1=O)Nc1nccs1,12%,3.821%
Cc1ncnc2c1CCN(CC(=O)N(C)C)CC2,2.21%,1.485%
Cc1nc(CN(C)Cc2nc(-c3ccncc3)no2)co1,7.595%,-3.846%
CSCC(C)(O)CNS(=O)(=O)c1ccc(Br)cc1 (configuration not stated),-0.5291%,8.549%
COc1ccc(CN(Cc2cc(C)no2)C2CC2)cc1,0.8772%,-28.36%
Cc1ccc(C(=O)N2CC[C@@]3(C[C@@H](NS(C)(=O)=O)CCO3)C2)s1,11.76%,1.5%
CN(Cc1ccsc1)Cc1ccc(C2CCCCO2)o1 (configuration not stated),11.34%,3.297%
CC(C(=O)N1CCc2ccccc2C1)N(C)Cc1cscn1 (configuration not stated),6.404%,-1.582%
Cc1ccc(CC(=O)N2Cc3nccn3CC(CN(C)C)C2)cc1 (configuration not stated),3.306%,4.086%
CCOCCCNC(=O)c1cc(Br)c2c(c1)OCCO2,1.149%,-2.583%
O=C(CCn1ncc2c(Cl)cccc21)NCCCO,2.609%,0%
CN1CCN(S(=O)(=O)C2CC2)Cc2cccnc21,1.508%,1.856%
O=C(O)c1c(-c2ccncc2)ncc2c1CCN(C1CCOC1)C2 (configuration not stated),0%,-
Cc1ncc2c(n1)CN(Cc1cn3ccsc3n1)CC2,8.929%,-0.8526%
COc1cc(Cl)cc(CN2CCCC(N3CCOCC3)C2)c1OC (configuration not stated),4.02%,-0.9709%
O=C1C(Sc2nc(=O)ccn2C2CC2)CCN1c1ccccc1F (configuration not stated),3.158%,-5.578%
CN1C(=O)CC(c2cnn(C)c2)C12CCN(C(=O)c1ccco1)CC2 (configuration not stated),14.29%,5.882%
C/N=C1/c2cc3cc(OC)ccc3n2CCN1C,2.609%,0%
O=C(NC1CCN(c2ccccc2OC(F)F)C1)c1c[nH]nn1 (configuration not stated),3%,1.157%
CC(C)(C)c1ncc(C(=O)NCCNC(=O)Cc2ccccc2)s1,-1.156%,-3.448%
COCCN1CCN(CCCS(=O)(=O)N(C)C)CC1C (configuration not stated),-9.357%,4.082%
O=S(=O)(N1CCN(CC2CC2)CC1)N1CCCC1c1ccco1 (configuration not stated),-2.353%,-5.16%
CCOCC(=O)NC(C)Cc1ccccc1Br (configuration not stated),1.538%,0%
O=C(c1n[nH]c2c1CN(C1CCOC1)CC2)N1CCOCC1 (configuration not stated),6.796%,2.703%
COc1cc(CNCc2ccc(NC(=O)NC(C)C)cc2)cc(OC)c1,4.943%,3.426%
N#CC1(NC(=O)CNCCn2cccn2)CCCCC1,4.516%,2.174%
O=C(CN1CCOCC1)N(c1ccccc1)c1ccccc1,0.8929%,5.912%
CNc1ncc(CN(C)C(=O)c2cccc(CC3CCNCC3)c2)cn1,3.529%,8.354%
CN(C)C(=O)N1CC2(CCOCC2)c2cc(NC(=O)CCO)ccc21,11.04%,-
FC(F)(F)c1ccc2nc([C@H]3CCN(C4CCOCC4)C3)[nH]c2c1,4.95%,3.837%
Cc1noc(C)c1CN(Cc1ccccc1)C(C)C,-3.784%,4.274%
CCc1ccc(C2CCCN2C(=O)CNC(=O)CCC(C)C)o1 (configuration not stated),2.976%,-0.609%
N#Cc1cc2c(nc1SCc1cc(O)nc(O)n1)CCCC2,6.936%,1.35%
COc1ccc(NC(=O)NC(C)c2nc[nH]n2)cc1 (configuration not stated),0%,8.37%
CSc1ccc(C(C(=O)O)N2CCOCC2)cc1 (configuration not stated),-1.754%,1.603%
CCCN1CCCC2(CCN(c3nccc(OC)n3)C2)C1=O (configuration not stated),4.891%,3.306%
CCOC(C(=O)N1CCn2c(nnc2C(C)C)C1)c1ccccc1 (configuration not stated),0%,-0.9569%
CC(=O)N(Cc1noc(C2CC2)n1)C1CCN(Cc2ccccc2)C1 (configuration not stated),2.312%,-0.894%
Cc1nc(CN2C[C@@H]3CN(C(=O)c4ccncc4)C[C@@H]3C2)cs1,8.543%,5.817%
COc1ccc(CNCC2CN(C3CC3)CCO2)cc1F (configuration not stated),1.98%,3.027%
O=C(O)C1CN(Cc2cnc(C3CCCCC3)nc2)CCO1 (configuration not stated),-2.186%,14.43%
O=C(O)c1ccccc1C1CCN(C2CCN(c3ccccc3)CC2)C1 (configuration not stated),10.98%,-1.24%
Cc1cc(C)n(CCCN(C)C(=O)C2COc3ccccc3C2)n1 (configuration not stated),10.59%,0%

Repeated from the top, 3 entries:

compound,A,B
CS(=O)(=O)N1CCOCC12CCN(c1nncs1)CC2,2.299%,9.572%
O=C(CCn1nc(C(=O)Nc2ccccc2)ccc1=O)Nc1nccs1,12%,3.821%
Cc1ncnc2c1CCN(CC(=O)N(C)C)CC2,2.21%,1.485%

From ChEMBL document CHEMBL3988442, “University of Dundee, Small-Polar-MMV Screening Library” (2021).